Counter-ions that a name gives are not always drawn. Some of these results come from one statement about several compounds together.
Assay: Dynamic Vapor Sorption (DVS), salt screen and scale-up salts
Type: physicochemical
Settings: 25° C.
Description: Dynamic Vapor Sorption (DVS)
DVS analyses were performed on TA Instrument DVS Q5000. Samples were added to a pre-tared metallised quartz crucible and run at 25° C. from 40% RH to 90% RH, down to zero and back to 40%. This cycle was repeated in increments of 10% RH.

SMILES | hygroscopicity class (listed as tosylate salt) | hygroscopicity class
COc1ccc2[nH]cc(CCN(C)C)c2c1 [Tosylate salt, 5-MeO-DMT tosylate] | slightly hygroscopic (Pharmaceuticals that pick up between 0.2% and 2.0% moisture at 80% RH are considered slightly hygroscopic) | –
COc1ccc2[nH]cc(CCN(C)C)c2c1.O=C(O)c1ccccc1 [benzoate salt, 5-MeO-DMT benzoate] | – | moderately hygroscopic (Pharmaceuticals that pick up between 2.0% and 15.0% moisture at 80% RH are considered moderately hygroscopic)

From patent US11773063B1, “Pharmaceutically acceptable salts and compositions thereof” (priority 2022, dated 2023)
